{"source": "paper PMC12187018", "binders": {"B1": {"name": "P2X7 (R), endogenous in equine macrophages (receptor, UniProt F6Q5L6 1-561)", "chain": "MPACCSWNDVFQYETNKVTRIQSMNYGTIKWICHLIVFSYVIFALVSDKRYQRKEPLISSVHTKVKGIAEVREEIIESGAKKVVQSVFDTADYTFPLQGNSFFVMTNFLKTEGQEQGLCPEYPTRRTLCSSDRGCKKGWMDPQSKGIQTGRCIVYKGNQKTCEVSAWCPIEAVEEAPRPALLNSAENFTVLIKNNIDFPGHNYTTRNFLPGLNITCTFHKTQNPQCPIFRLGDIFRETGDHFSDVAIQGGIMGIEIYWDCNLDRWFHHCRPKYSFRRLDDKTASESSYPGYNFRYAKYYKENNVEKRTLIKVFGIRFDILVFGTGGKFDIIQLIVFVGSTLSYFGLATLFIDFLINTYSSKFCRSSIYPCCKYCEPCSVNEYYYRKKCESIVEPKPRPSMDFTDLSRLPLSLQDPHVTPGQPEDIQLLSEEVTPRHKDSPHWCQCGNCLPSQLPESHRCLEELCCRKKMGACITTSEPFRKLVLSRRVLQFLLLYREPLLVLDADSTNSQLRHCAYRCYATWRFGSQDLADFAILPSCCRWRIRREFPRSEGQYSGFKSPY"}}, "target": "EIAV Env of the virulent strain (EIAV_DLV34), in infected macrophages (EIAV, virulent strain EIAV_DLV34)", "experiment": "affinity purification with mass spectrometry; anti-Env magnetic beads on lysate (1% Triton X-100, 50 mM Tris-HCl pH 7.4, 150 mM NaCl) of eMDMs three days after EIAV infection, 2 h at 4 °C; eluted with an Env epitope peptide; gel bands analysed by mass spectrometry", "note": "No constants are given. Whether binding was seen depends on the method and setting. In cells and extracts the contact can be indirect. Here binding means that the protein was enriched with, or labelled near, the bait; the list need not be complete.", "data": [{"binder": "B1", "values": [{"measurement": "binding", "value": "binds"}]}]}
